Some of these results come from one statement about several compounds together.
Experiments:
[1] = molecular target: T1, KRAS G12V (Homo sapiens, UniProt P01116, G12V); assay: Cellular Phospho-ERK AlphaLISA assay, SW620 cells; format: cell-based; conditions: SW620 vs MEF-NRAS or MEF-HRAS Phospho-ERK AlphaLISA
T1 construct: endogenous in cells; host or cells: SW620 human colorectal cancer cells

[2] = molecular target: T2, KRas G12D mutant (Homo sapiens, UniProt P01116, G12D); assay: PANC-1 Cellular Active RAS GTPase ELISA (KRas G12D Mutation); format: cell-based; conditions: PANC-1 vs MKN-45 Cellular Active RAS GTPase ELISA
T2 construct: host or cells: PANC-1 human pancreatic ductal adenocarcinoma cells

CN(C)[C@H]1CN(c2ncc3c4c(c(-c5ncc(F)c6sc(N)c(C#N)c56)c(Cl)c3n2)COC4)C[C@H]1O.O=CO (atropisomer, axis not shown) [Example 69C, 2-Amino-4-(5-chloro-3-((3S,4R)-3-(dimethylamino)-4-hydroxypyrrolidin-1-yl)-7,9-dihydrofuro[3,4-f]quinazolin-6-yl)-7-fluorothieno[3,2-c]pyridine-3-carbonitrile, Atropsiomer 2 formic acid]
selective inhibition preference for KRas G12V mutant over HRAS and NRAS [1]: greater than 10 fold

C[C@@H](O)CN1CC2CCC(C1)N2c1nc(OCC2(CN3CCC(F)CC3)CC2)nc2c(F)c(-c3ncc(F)c4sc(N)c(C#N)c34)c3c(c12)COC3 [Example 9, 2-Amino-7-fluoro-4-(5-fluoro-3-((1-((4-fluoropiperidin-1-yl)methyl)cyclopropyl)meth-oxy)-1-(3-((R)-2-hydroxypropyl)-3,8-diazabicyclo[3.2.1]octan-8-yl)-7,9-dihydrofuro[3,4-f]quinazolin-6-yl)thieno[3,2-c]pyridine-3-carbonitrile]
selective inhibition preference for KRas G12D mutant over KRas wild-type [2]: greater than 10 fold | selective inhibition preference for KRas G12V mutant over HRAS and NRAS [1]: greater than 10 fold

C[C@H]1[C@@H](NC[C@H](O)C(F)(F)F)CCN1c1ncc2c3c(c(-c4ncc(F)c5sc(N)c(C#N)c45)c(F)c2n1)COC3.O=CO [Example 275D, 2-Amino-7-fluoro-4-(5-fluoro-3-((2S,3S)-2-methyl-3-(((S)-3,3,3-trifluoro-2-hydroxypropyl)amino)pyrrolidin-1-yl)-7,9-dihydrofuro[3,4-f]quinazolin-6-yl)thieno[3,2-c]pyridine-3-carbonitrile formic acid]
selective inhibition preference for KRas G12V mutant over HRAS and NRAS [1]: greater than 10 fold

C[C@@H](O)CN1CC2CCC(C1)N2c1nc(OCC2(CN3CC[C@@H](F)C3)CC2)nc2c(F)c(-c3ncc(F)c4sc(N)c(C#N)c34)c3c(c12)COC3 [Example 8, 2-Amino-7-fluoro-4-(5-fluoro-3-((1-(((R)-3-fluoropyrrolidin-1-yl)methyl)cyclopropyl)meth-oxy)-1-(3-((R)-2-hydroxypropyl)-3,8-diazabicyclo[3.2.1]octan-8-yl)-7,9-dihydrofuro[3,4-f]quinazolin-6-yl)thieno[3,2-c]pyridine-3-carbonitrile]
selective inhibition preference for KRas G12D mutant over KRas wild-type [2]: greater than 10 fold | selective inhibition preference for KRas G12V mutant over HRAS and NRAS [1]: greater than 10 fold

Source: US12723053B2, “KRas inhibitors” (ELI LILLY AND COMPANY, priority 2023, dated 2026)
